# Measurements reported in PubChem BioAssay AID1259424 (University of Nebraska Medical Center, 2018)
# Screen: 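Find knockdowns that reproduce the expression shifts seen after KSR1 loss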 (primary screen)
# System: human HCT116 colon cancer cells
# Reagents: siRNA pool against human genes, 50 nM
# Detection: 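Six signature mRNAs by branched-DNA multiplex assay, scaled to two housekeeping genes and non-targeting median, log2; matched to mean KSR1 knockdown profile by Pearson correlation and euclidean distance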
# Reading the numbers: mean correlation with KSR1 profile and KSR1 correlation: higher = expression change more like KSR1 knockdown; mean distance from KSR1 profile: higher = expression change less like KSR1 knockdown
# Here is one part, drawn at random, of about 14,000 reagents. 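Higher correlation or smaller distance means closer resemblance to KSR1 loss; control wells, including KSR1 knockdowns, recur on many plates.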 The record does not give: the time to read-out.
gene,mean correlation with KSR1 profile,mean distance from KSR1 profile,"KSR1 correlation, replicate 1","KSR1 correlation, replicate 2","KSR1 correlation, replicate 3"
GSC2,0.195,2.77,-0.126,-0.399,0.32
EDA2R,-0.0386,2.07,0.0555,-0.211,-0.0318
NOM1,0.333,2.1,0.196,0.0353,0.266
TNFRSF10B,0.599,2.22,0.495,0.42,0.724
SLC38A12,-0.255,3.72,-0.601,-0.0265,-0.347
RPL18,0.274,2.67,0.145,-0.485,0.329
TRIM31,-0.248,4.8,-0.29,-0.0209,-0.632
FGFR3,0.454,2.68,0.473,0.0967,0.488
GUCY1A2,-0.584,1.49,-0.524,-0.754,-0.656
SLC35F5,-0.667,2.66,-0.789,-0.485,-0.77
PTER,-0.42,2.01,-0.358,0.0634,-0.56
ZNF264,-0.142,1.74,-0.416,0.00239,0.412
PI3,-0.814,2.24,-0.783,-0.637,-0.562
C21orf91,-0.711,1.22,-0.831,-0.586,-0.52
SCRIB,0.0961,1.43,-0.0291,0.121,0.0122
RNF216,0.658,0.893,0.618,0.567,0.672
DPT,-0.49,3.11,-0.548,-0.625,-0.389
HCN1,-0.584,1.62,-0.656,-0.605,-0.392
RPL7A,0.712,2.44,0.77,0.761,0.467
SPSB3,0.545,2.25,0.783,0.527,0.0858
HPDL,0.48,1.8,-0.349,0.113,0.5
LIMK1,0.039,1.92,0.17,0.181,-0.144
PTPRJ,0.75,2.04,0.869,0.79,0.433
IKBKB,-0.0741,4.59,0.24,0.0662,-0.436
NSD3,-0.166,1.98,-0.292,-0.167,-0.00672
CDC42SE1,-0.0165,1.94,-0.122,0.168,0.0414
DIRAS3,0.262,1.32,0.188,0.465,-0.0383
OR5V1,0.811,2.9,0.764,0.865,0.786
UBC,0.197,4.09,0.569,-0.245,0.0393
CDH4,0.088,2.63,0.279,0.00725,0.251
PDCL3,-0.558,3.37,-0.708,-0.625,-0.549
SCO2,0.782,1.72,0.871,0.875,0.527
MRC2,0.123,2.95,0.0327,0.419,0.0414
SDC2,-0.0173,2.18,-0.223,-0.026,0.23
CUL4B,-0.444,1.95,-0.416,-0.458,-0.406
SFMBT2,0.686,1.42,0.403,0.727,0.603
CELA2A,0.568,1.92,0.266,0.484,0.626
METTL22,0.25,1.54,0.236,-0.108,-0.0505
MTMR2,0.288,2.35,0.516,-0.482,0.143
GMCL1,0.0633,2.17,0.158,-0.0446,0.00699
DDO,-0.233,1.77,-0.325,-0.106,-0.261
NSA2,-0.585,2.76,-0.692,-0.255,-0.411
HAX1,-0.227,3.49,-0.21,-0.255,-0.12
COX15,0.178,3,0.019,0.359,0.304
NKX3-2,0.714,1.62,0.505,0.672,0.787
RRS1,0.289,3.2,0.392,0.0396,0.408
CEP97,0.239,1.63,0.515,0.138,0.107
ARID5A,0.0756,1.1,0.223,0.12,-0.0428
ACTN1,-0.162,1.81,-0.074,-0.411,-0.106
B3GALT1,0.525,4.41,0.742,0.482,0.264

8 entries already listed, arranged by “KSR1 correlation, replicate 1”, ascending:
gene,mean correlation with KSR1 profile,mean distance from KSR1 profile,"KSR1 correlation, replicate 1","KSR1 correlation, replicate 2","KSR1 correlation, replicate 3"
C21orf91,-0.711,1.22,-0.831,-0.586,-0.52
PI3,-0.814,2.24,-0.783,-0.637,-0.562
HCN1,-0.584,1.62,-0.656,-0.605,-0.392
DPT,-0.49,3.11,-0.548,-0.625,-0.389
SCRIB,0.0961,1.43,-0.0291,0.121,0.0122
RNF216,0.658,0.893,0.618,0.567,0.672
RPL7A,0.712,2.44,0.77,0.761,0.467
SPSB3,0.545,2.25,0.783,0.527,0.0858
